Results are given in words; binding and its absence hold for the method and conditions named. Some results given as binding are weak or reduced against the parent protein; the word gives no strength.
Key:
[1] = target: T1, chimeric CTLA-4 protein comprising the extracellular and transmembrane domains of human CTLA-4 linked to the intracellular domain of CD3zeta, expressed on a transformed cell line (human; murine) (UniProt P16410+P24161); experiment: flow cytometry on cells expressing the human CTLA-4 extracellular and transmembrane domains fused to CD3zeta, PE-labeled goat anti-human IgG detection
[2] = target: T1, chimeric CTLA-4 protein comprising the extracellular and transmembrane domains of human CTLA-4 linked to the intracellular domain of CD3zeta, expressed on a transformed cell line (human; murine); experiment: flow cytometry on cells expressing human CTLA-4

Protein sequences, listed by entry. Tags and fused reporters are not part of them. Lines headed by an entry give the natural chain unless they say otherwise; changes in a name come on top.
UniProt P16410: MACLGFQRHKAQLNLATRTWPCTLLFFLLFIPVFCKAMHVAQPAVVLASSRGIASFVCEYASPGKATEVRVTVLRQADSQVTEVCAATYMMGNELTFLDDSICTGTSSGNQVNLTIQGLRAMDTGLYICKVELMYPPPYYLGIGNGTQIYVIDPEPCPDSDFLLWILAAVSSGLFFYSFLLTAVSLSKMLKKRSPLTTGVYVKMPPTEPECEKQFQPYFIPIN
UniProt P24161: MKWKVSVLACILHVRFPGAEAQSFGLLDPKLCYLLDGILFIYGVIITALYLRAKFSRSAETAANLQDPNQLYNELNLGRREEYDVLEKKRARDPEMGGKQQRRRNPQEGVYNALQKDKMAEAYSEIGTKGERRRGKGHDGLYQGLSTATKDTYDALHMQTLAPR

- binding [1]: binds
- binding [2]: binds
B1: 6C10 human monoclonal antibody (antibody, V domains shown)
VH: QVQLVESGGGVVQPGRSLRLSCTASGFTFSSHGMHWVRQAPGKGLEWVAVVWFDGSNKYYVDSVKGRFTISRDNSKNTLYLQMNSLRAEDTAVYYCARGSGYSSGFDYWGQGTLVTVSS
VL: DIQMTQSPSSLSASVGDRVTITCRASQGISSWLAWYQQKPEKAPKSLIYAASSLQSGVPSRFSGSGSGTDFTLTISSLQPEDFATYYCQQYNSYPLTFGGGTKVEIK
notes: Purified human IgG kappa antibody from a hybridoma (HuMab mouse); also called mAb 6C10

From patent US20110081354A1 (Bristol-Myers Squibb, published 2011)
